Laboratory results reported in US20230065079A1, “FATTY ACID DERIVATIVE LABELED WITH POSITRON-EMITTING RADIONUCLIDE” (ASTELLAS PHARMA INC., priority 2020, published 2023).

Experiment: PET test using normal cynomolgus monkey (heart contrast PET, SUV in myocardium and bone ROI)
Type: in vivo
Conditions: MIP PET images 60 and 180 minutes after administration, FIGS. 1A to 1D, result in words
Source text: Solutions containing each compound prepared in Examples 1 to 7 and Reference Example 15 ([^18F]FTO) were used to perform a heart contrast PET test using normal cynomolgus monkeys.
For performing non-invasive PET imaging, in a state in which a male cynomolgus monkey was anesthetized with inhalation anesthetic isoflurane, the monkey was held at a supine body position on a PET camera SHR17000 (manufactured by Hamamatsu Photonics K.K.), the solution containing each compound (about 300 MBq) was administered from the lower extremity vein, and continuous imaging was performed for 180 minutes or more after the administration. The PET images were reconstructed by dynamic row-action maximum likelihood algorithm (DRAMA) and average images per each time section which is divided every 20 minutes from 0 minutes to 180 minutes after the administration, are obtained. Then, the region of interest (ROI) was set in the myocardium region or bone (near the spine), and the accumulation (standardized uptake value (SUV)) of each compound was calculated as {radioactivity count in the ROI (MBq/cc)/[dose (MBq)/body weight (g)]}.
The SUV values quantified by setting the ROI for the myocardium and the bone of each compound are shown in Tables 10 and 11 as SUV (myocardium) and SUV (bone). […] A case where the target organ cannot be confirmed in the image and the ROI cannot be set is denoted as n.d. […]

| Structure (SMILES) | PET image (heart imaging, accumulation seen in image) |
| --- | --- |
| CCCCCCCCC1CC1CC([18F])CCSCCC(=O)O (centres unmarked) [Example 6, 3-{[3-[^18F]fluoro-4-(2-octylcyclopropyl)butyl]sulfanyl}propanoic acid] | excellent heart PET imaging could be performed |
| O=C(O)CCSCCCC/C=C\CCCCCCCC[18F] [Reference Example 15, 3-{[(5Z)-14-[^18F]fluorotetradec-5-en-1-yl]sulfanyl}propanoic acid, reference compound] | accumulation of [^18F]fluorine is confirmed not only in the heart but also in the bone |
